No constants are given. Whether binding was seen depends on the method and setting. For some assays here: Binding seen in cells or lysates may run through a third protein. Some binding calls cover weakened binding; strength is not graded here. For some assays here: Where a sequence is shown, tags or fusion partners need not be part of it.
Legend:
[1] = target: T1, POLD3-RFP (POLD3 fused with RFP) (UniProt Q15054); experiment: proximity ligation; DuoLink In Situ Red kit on cells fixed in 2% PFA; mouse anti-FLAG and rabbit anti-RFP antibodies; PARP1/2KO cells complemented with PARP2-FLAG or E558A and transfected with POLD3-RFP; with or without BLM siRNA (50 nM, 48 h)
T1 sequence: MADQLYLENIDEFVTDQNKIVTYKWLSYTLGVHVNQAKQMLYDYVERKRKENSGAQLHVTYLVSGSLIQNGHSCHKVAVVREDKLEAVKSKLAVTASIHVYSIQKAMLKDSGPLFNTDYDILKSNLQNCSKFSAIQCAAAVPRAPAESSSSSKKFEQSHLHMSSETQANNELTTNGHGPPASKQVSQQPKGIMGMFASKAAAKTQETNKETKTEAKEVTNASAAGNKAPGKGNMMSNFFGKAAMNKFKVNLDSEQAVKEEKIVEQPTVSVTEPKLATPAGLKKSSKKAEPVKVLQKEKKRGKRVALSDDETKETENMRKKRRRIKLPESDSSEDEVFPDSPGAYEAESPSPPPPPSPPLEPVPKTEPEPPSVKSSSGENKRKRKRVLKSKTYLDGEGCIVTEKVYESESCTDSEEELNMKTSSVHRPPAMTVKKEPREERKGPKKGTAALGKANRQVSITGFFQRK

Protein sequences, listed by entry. Tags and fused reporters are not part of them. Lines headed by an entry give the natural chain unless they say otherwise; changes in a name come on top.
UniProt Q9UGN5: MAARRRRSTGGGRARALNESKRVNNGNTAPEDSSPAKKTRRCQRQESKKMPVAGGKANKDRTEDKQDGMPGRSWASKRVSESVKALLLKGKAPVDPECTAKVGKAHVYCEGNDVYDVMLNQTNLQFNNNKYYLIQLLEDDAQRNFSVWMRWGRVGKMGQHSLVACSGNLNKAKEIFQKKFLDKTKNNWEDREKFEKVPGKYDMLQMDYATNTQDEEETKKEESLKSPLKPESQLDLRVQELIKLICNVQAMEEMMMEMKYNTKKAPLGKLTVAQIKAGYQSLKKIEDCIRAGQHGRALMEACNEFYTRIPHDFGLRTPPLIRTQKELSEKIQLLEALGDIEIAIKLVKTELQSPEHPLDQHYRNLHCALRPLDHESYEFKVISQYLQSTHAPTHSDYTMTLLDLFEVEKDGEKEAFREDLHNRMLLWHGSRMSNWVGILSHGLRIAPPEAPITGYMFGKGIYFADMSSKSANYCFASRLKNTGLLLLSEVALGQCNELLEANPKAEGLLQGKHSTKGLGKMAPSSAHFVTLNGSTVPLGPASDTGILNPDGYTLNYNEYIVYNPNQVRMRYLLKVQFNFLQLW
UniProt P49005: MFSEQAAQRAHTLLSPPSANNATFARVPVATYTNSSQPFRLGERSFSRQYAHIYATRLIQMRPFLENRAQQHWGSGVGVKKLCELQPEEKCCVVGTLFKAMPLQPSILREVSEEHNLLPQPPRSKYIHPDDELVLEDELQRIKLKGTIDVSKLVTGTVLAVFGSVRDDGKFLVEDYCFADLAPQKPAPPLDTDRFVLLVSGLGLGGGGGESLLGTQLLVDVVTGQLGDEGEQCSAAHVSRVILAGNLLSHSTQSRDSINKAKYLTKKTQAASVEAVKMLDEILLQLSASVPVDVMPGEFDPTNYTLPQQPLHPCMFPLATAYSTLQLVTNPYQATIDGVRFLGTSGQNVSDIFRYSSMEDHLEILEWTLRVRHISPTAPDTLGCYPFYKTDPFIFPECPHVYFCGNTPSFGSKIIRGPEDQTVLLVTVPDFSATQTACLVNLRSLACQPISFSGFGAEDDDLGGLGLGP
UniProt P28340: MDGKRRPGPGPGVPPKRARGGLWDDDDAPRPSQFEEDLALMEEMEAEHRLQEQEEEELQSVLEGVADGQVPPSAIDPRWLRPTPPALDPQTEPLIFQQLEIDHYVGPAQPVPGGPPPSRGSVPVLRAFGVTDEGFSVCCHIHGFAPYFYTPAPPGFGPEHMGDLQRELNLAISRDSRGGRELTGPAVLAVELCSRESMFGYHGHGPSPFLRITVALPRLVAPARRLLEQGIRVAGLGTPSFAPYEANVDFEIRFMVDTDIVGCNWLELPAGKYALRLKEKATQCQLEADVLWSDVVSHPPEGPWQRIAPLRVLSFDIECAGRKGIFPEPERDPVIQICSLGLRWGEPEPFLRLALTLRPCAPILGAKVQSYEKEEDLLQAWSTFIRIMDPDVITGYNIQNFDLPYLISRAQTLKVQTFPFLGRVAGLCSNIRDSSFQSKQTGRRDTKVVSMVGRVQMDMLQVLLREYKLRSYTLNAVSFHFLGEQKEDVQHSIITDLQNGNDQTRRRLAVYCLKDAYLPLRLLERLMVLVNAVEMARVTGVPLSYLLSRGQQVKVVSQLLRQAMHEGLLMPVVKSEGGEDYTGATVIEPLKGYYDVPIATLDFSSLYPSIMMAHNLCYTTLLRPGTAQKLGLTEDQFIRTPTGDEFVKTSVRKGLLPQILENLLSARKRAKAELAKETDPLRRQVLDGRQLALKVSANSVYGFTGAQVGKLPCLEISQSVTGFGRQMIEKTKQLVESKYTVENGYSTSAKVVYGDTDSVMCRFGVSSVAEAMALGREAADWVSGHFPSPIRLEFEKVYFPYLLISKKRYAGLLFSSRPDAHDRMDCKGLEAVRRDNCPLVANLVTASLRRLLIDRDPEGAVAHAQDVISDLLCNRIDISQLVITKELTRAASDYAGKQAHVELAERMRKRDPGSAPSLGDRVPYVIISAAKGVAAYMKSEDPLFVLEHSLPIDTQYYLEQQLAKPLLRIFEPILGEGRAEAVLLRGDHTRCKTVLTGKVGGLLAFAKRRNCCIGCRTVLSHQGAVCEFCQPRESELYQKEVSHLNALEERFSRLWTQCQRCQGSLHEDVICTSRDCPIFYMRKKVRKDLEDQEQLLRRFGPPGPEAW

[2] = target: T1, POLD3-RFP (POLD3 fused with RFP); experiment: co-IP; POLD3-RFP captured on RFP-Trap-M magnetic beads, 1 h at 4 °C, from RIPA lysate with DNaseI, diluted in 10 mM Tris-HCl pH 7.5, 150 mM NaCl, 0.5 mM EDTA; blot with anti-PARP2
[3] = target: T2, p66 (POLD3) subunit of recombinant human DNA polymerase delta (human) (UniProt Q15054); experiment: SEC; Pol delta subunits co-expressed in E. coli, co-purified on a Ni-charged HiTrap chelating column (held by p66) and HiTrap heparin, then Superose 6 HR 10/30 in buffer A with 500 mM NaCl
T2 sequence: T1 sequence

Substance | binding [1] | binding [2] | binding [3]
PARP2 E558A catalytically dead mutant (FLAG-tagged) (from UniProt Q9UGN5 1-583) (enzyme) | binds | – | –
PARP2-FLAG (wild-type PARP2 fused to a 3x Flag tag) (from UniProt Q9UGN5 1-583) (enzyme) | binds | binds | –
p50 (POLD2) subunit of recombinant human DNA polymerase delta (from UniProt P49005 1-469) | – | – | binds
p125 (POLD1) subunit of recombinant human DNA polymerase delta (from UniProt P28340 1-1107) (enzyme) | – | – | binds

Reference: PMC10987537
